Values of other authors, collected in patent publication US8551726B2, “Method of modulating HSF-1” (Northwestern University, priority 2008, dated 2013).
For at least one compound, name, drawing or mass did not settle the structure.

Tested on: heat shock response
Details: known value, reference [4]; read-out: EC50 as heat shock response inducer; cited from earlier work

CC1=C(O)C(=O)C=C2C1=CC=C1[C@@]2(C)CC[C@@]2(C)[C@@H]3C[C@](C)(C(=O)O)CC[C@]3(C)CC[C@]12C [celastrol]
EC50: 5 µM
